Test results published in PMC8006202, “Influence of YES1 Kinase and Tyrosine Phosphorylation on the Activity of OCT1” (Frontiers in Pharmacology, 2021).

Tested on: OCT1/OCT2 (OCT1/2)-deficient mice
Experiment: Targeted metabolomics / IBC levels in wild-type versus OCT1/2-deficient mice
Assay type: in vivo, mouse
[1] = liver, OCT1/2-deficient vs wild-type mice, females
[2] = liver, OCT1/2-deficient vs wild-type mice, males

Row | Compound | Fold-change Female (KO/WT) [1] | Fold-change Male (KO/WT) [2] | further results
1 | O=C(O)[C@H]1OC(O)[C@H](O)[C@@H](O)[C@@H]1O (mixture of isomers) [glucuronate] | 0.80 | 1.19 | 
2 | Cn1cnc2c(ncn2[C@@H]2O[C@H](CO)[C@@H](O)[C@H]2O)c1=N [1-methyl-adenosine] | 0.81 | 0.85 | 
3 | Cn1cnc(C[C@H](N)C(=O)O)c1 [1-methyl-histidine] | 0.58 | 0.60 | 
4 | C[n+]1cccc(C(N)=O)c1 [1-methyl-nicotinamide] | 1.30 | 0.29 | 
5 | CCCCCCC(N)C(=O)O (stereo not drawn) [2-amino-octanoic acid] | 0.86 | 0.69 | 
6 | Nc1ccn([C@H]2C[C@H](O)[C@@H](CO)O2)c(=O)n1 [2-deoxycytidine] | 0.88 | 0.44 | 
7 | Cc1ncc(CO)c(C(=O)O)c1O [4-pyridoxic acid] | 0.84 | 0.63 | 
8 | NCC(=O)CCC(=O)O [5-aminolevulinic acid] | 0.80 | 0.81 | 
9 | NC(=O)c1ncn([C@@H]2O[C@H](CO)[C@@H](O)[C@H]2O)c1N [AICAR] | 0.69 | 0.78 | 
10 | Nc1ncnc2c1ncn2[C@@H]1O[C@H](COP(=O)(O)O)[C@@H](O)[C@H]1O [AMP] | 0.93 | 0.83 | 
11 | Nc1ccn([C@@H]2O[C@H](COP(=O)(O)O)[C@@H](O)[C@H]2O)c(=O)n1 [CMP] | 0.86 | 0.88 | 
12 | Nc1nc2c(ncn2[C@@H]2O[C@H](COP(=O)(O)O)[C@@H](O)[C@H]2O)c(=O)[nH]1 [GMP] | 0.81 | 0.76 | 
13 | N[C@@H](CCC(=O)N[C@@H](CS)C(=O)NCC(=O)O)C(=O)O [GSH] | 0.93 | 0.75 | 
14 | CC(C)C(=O)O[C@H](CC(=O)[O-])C[N+](C)(C)C [Isobutyryl-L carnitine, isobutyryl L-carnitine] | 2.97 | 5.85 | levels in plasma, wild-type mice vs OCT1/2-deficient mice (baseline plasma): significantly elevated; hepatic concentration in OCT1/2-deficient mice compared to wild-type mice (liver, male and female animals): substantially elevated; levels in the kidney (regardless of mouse genotype): negligible
15 | CC(=O)N[C@@H](C)C(=O)O [N-acetyl-alanine] | 0.88 | 0.83 | 
16 | NC(=O)c1ccc[n+]([C@@H]2O[C@H](COP(=O)([O-])OP(=O)(O)OC[C@H]3O[C@@H](n4cnc5c(N)ncnc54)[C@H](O)[C@@H]3O)[C@@H](O)[C@H]2O)c1 [NAD] | 0.89 | 0.88 | 
17 | Nc1ncnc2c1ncn2[C@@H]1O[C@H](CSCC[C@H](N)C(=O)O)[C@@H](O)[C@H]1O [S-adenosyl-homocysteine] | 1.00 | 1.18 | 
18 | C[S+](CC[C@H](N)C(=O)[O-])C[C@H]1O[C@@H](n2cnc3c(N)ncnc32)[C@H](O)[C@@H]1O (stereo partly drawn) [S-adenosyl-methionine] | 0.69 | 0.60 | 
19 | CSC[C@H]1O[C@@H](n2cnc3c(N)ncnc32)[C@H](O)[C@@H]1O [S-methyl-5-thioadenosine] | 0.82 | 0.74 | 
20 | O=C(O)[C@H]1O[C@H](OP(=O)(O)OP(=O)(O)OC[C@H]2O[C@@H](n3ccc(=O)[nH]c3=O)[C@H](O)[C@@H]2O)[C@H](O)[C@@H](O)[C@@H]1O [UDP-glucuronic acid] | 0.64 | 0.98 | 
21 | O=c1ccn([C@@H]2O[C@H](COP(=O)(O)O)[C@@H](O)[C@H]2O)c(=O)[nH]1 [UMP] | 0.70 | 0.82 | 
22 | CC(=O)O[C@H](CC(=O)[O-])C[N+](C)(C)C [acetyl-carnitine] | 3.42 | 6.90 | 

Row | Compound | Fold-change Female (KO/WT) [1] | Fold-change Male (KO/WT) [2] | further results
23 | CC(=O)OCC[N+](C)(C)C [acetyl-choline] | 3.02 | 1.77 | 
24 | CC(=O)NCCCC[C@H](N)C(=O)O [acetyllysine] | 0.69 | 0.58 | 
25 | Nc1ncnc2[nH]cnc12 [adenine] | 0.99 | 0.95 | 
26 | Nc1ncnc2c1ncn2[C@@H]1O[C@H](CO)[C@@H](O)[C@H]1O [adenosine] | 0.93 | 0.73 | 
27 | NC(=O)NC1NC(=O)NC1=O (stereo not drawn) [allantoin] | 0.84 | 0.61 | 
28 | NC(CCCC(=O)O)C(=O)O (stereo not drawn) [aminoadipic acid] | 0.58 | 0.48 | 
29 | N=C(N)NCCC[C@H](N)C(=O)O [arginine] |  |  | Fold-change Female (KO/WT) (mouse, in vivo): 0.59; Fold-change Male (KO/WT) (mouse, in vivo): 0.35
30 | N[C@@H](CC(=O)O)C(=O)O [aspartate] | 0.95 | 0.63 | 
31 | C[N+](C)(C)CC=O [betaine aldehyde] | 2.38 | 2.82 | 
32 | C[N+](C)(C)CC(=O)O [betaine] | 1.05 | 0.97 | 
33 | N=c1c2ncn3c2ncn1[C@@H]1O[C@H](COP(=O)(O)OP(=O)(O)OC[C@H]2O[C@@H]3[C@H](O)[C@@H]2O)[C@@H](O)[C@H]1O [cADP-ribose] | 0.97 | 0.89 | 
34 | NC(=O)OP(=O)(O)O [carbamoylphosphate] | 0.84 | 0.83 | 
35 | CCC(=O)O[C@H](CC(=O)[O-])C[N+](C)(C)C [carnitine-C3] | 4.95 | 6.79 | 
36 | CCCCCCCC(=O)O[C@H](CC(=O)O)C[N+](C)(C)C [carnitine-C8] | 1.15 | 1.85 | 
37 | CCCCCCCCCCCC(=O)O[C@H](CC(=O)[O-])C[N+](C)(C)C [carnitine-C12] | 3.25 | 5.83 | 
38 | CCCCCCCCCCCCCCCC(=O)OC(CC(=O)[O-])C[N+](C)(C)C (stereo not drawn) [carnitine-C16] | 2.01 | 2.83 | 
39 | CCCCCCCCCCCCCCCCCC(=O)O[C@H](CC(=O)[O-])C[N+](C)(C)C [carnitine-C18] | 1.49 | 1.83 | 
40 | C[N+](C)(C)CCO [choline] | 0.88 | 1.02 | 
41 | NC(=O)NCCC[C@H](N)C(=O)O [citrulline] | 0.87 | 0.55 | 
42 | CN(CC(=O)O)C(=N)N [creatine] | 0.84 | 0.75 | 
43 | CN1CC(=O)NC1=N [creatinine] | 0.75 | 0.78 | 
44 | O=c1[nH]cnc2c1ncn2[C@H]1C[C@H](O)[C@@H](CO)O1 [deoxyinosine] | 0.75 | 0.82 | 

Row | Compound | Fold-change Female (KO/WT) [1] | Fold-change Male (KO/WT) [2] | further results
45 | O=C1CC(C(=O)O)NC(=O)N1 (stereo not drawn) [dihydroorotate] | 1.14 | 0.73 | 
46 | CN(C)CC(=O)O [dimethylglycine] | 0.91 | 1.05 | 
47 | Nc1nc(=O)c2nc(CNc3ccc(C(=O)N[C@@H](CCC(=O)O)C(=O)O)cc3)cnc2[nH]1 [folic acid] | 1.07 | 1.67 | 
48 | O=C(O)/C=C/C(=O)O [fumarate] | 1.00 | 0.73 | 
49 | O=P(O)(O)O[C@H]1O[C@H](CO)[C@H](O)[C@H](O)[C@H]1O [galactose 1-phosphate] | 0.94 | 0.81 | 
50 | O=C(O)[C@@H](O)[C@@H](O)[C@H](O)[C@@H](O)C(=O)O [glucarate] | 0.90 | 1.01 | 
51 | O=C(O)[C@H](O)[C@@H](O)[C@H](O)[C@H](O)CO [gluconic acid] |  |  | Fold-change Female (KO/WT) (mouse, in vivo): 0.91; Fold-change Male (KO/WT) (mouse, in vivo): 0.79
52 | NC(=O)CC[C@H](N)C(=O)O [glutamine] | 1.18 | 0.97 | 
53 | C[N+](C)(C)CCOP(=O)([O-])OC[C@H](O)CO [glycerophosphorylcholine] | 0.87 | 1.25 | 
54 | NCC(=O)O [glycine] | 0.97 | 0.97 | 
55 | NC(N)=NCC(=O)O [guanidoacetic acid] | 0.87 | 0.76 | 
56 | Nc1nc2c(ncn2[C@@H]2O[C@H](CO)[C@@H](O)[C@H]2O)c(=O)[nH]1 [guanosine] | 0.93 | 0.80 | 
57 | N[C@@H](Cc1c[nH]cn1)C(=O)O [histidine] | 1.17 | 0.84 | 
58 | NC(CCS)C(=O)O (stereo not drawn) [homocysteine] | 0.78 | 0.73 | 
59 | O=C(O)[C@@H]1C[C@@H](O)CN1 [hydroxy-proline] | 0.99 | 0.83 | 
60 | O=c1[nH]cnc2nc[nH]c12 [hypoxanthine] | 1.03 | 1.07 | 
61 | c1ccc2[nH]ccc2c1 [indole] |  |  | Fold-change Female (KO/WT) (mouse, in vivo): 0.66; Fold-change Male (KO/WT) (mouse, in vivo): 0.94
62 | O=c1[nH]cnc2c1ncn2[C@@H]1O[C@H](CO)[C@@H](O)[C@H]1O [inosine] | 1.04 | 1.03 | 
63 | Nc1ccccc1C(=O)CC(N)C(=O)O (stereo not drawn) [kynurenine] | 0.82 | 1.30 | 
64 | CC(O)C(=O)O (stereo not drawn) [lactate] | 0.85 | 0.87 | 
65 | NCCCC[C@H](N)C(=O)O [lysine] |  |  | Fold-change Female (KO/WT) (mouse, in vivo): 0.96; Fold-change Male (KO/WT) (mouse, in vivo): 0.76
66 | O=C(O)CC(O)C(=O)O (stereo not drawn) [malic acid] | 0.97 | 0.71 | 
